The other results are listed elsewhere or left out.

The chains behind the UniProt entries cited, without tags or fusion partners. Where a name states a change or a piece, a line headed by the entry shows the natural chain unless it says otherwise.
UniProt Q9UK53: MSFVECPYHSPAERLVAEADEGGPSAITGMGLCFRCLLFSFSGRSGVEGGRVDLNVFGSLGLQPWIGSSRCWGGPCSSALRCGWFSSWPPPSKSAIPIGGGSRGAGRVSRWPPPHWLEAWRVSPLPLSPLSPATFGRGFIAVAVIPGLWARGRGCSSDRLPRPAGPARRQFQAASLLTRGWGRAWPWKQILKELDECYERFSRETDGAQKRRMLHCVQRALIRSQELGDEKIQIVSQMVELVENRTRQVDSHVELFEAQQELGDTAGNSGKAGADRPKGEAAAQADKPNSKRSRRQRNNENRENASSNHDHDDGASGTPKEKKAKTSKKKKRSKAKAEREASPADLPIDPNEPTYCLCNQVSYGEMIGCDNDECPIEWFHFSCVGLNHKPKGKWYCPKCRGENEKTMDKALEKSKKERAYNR
UniProt Q8WYH8, whole entry, looked up: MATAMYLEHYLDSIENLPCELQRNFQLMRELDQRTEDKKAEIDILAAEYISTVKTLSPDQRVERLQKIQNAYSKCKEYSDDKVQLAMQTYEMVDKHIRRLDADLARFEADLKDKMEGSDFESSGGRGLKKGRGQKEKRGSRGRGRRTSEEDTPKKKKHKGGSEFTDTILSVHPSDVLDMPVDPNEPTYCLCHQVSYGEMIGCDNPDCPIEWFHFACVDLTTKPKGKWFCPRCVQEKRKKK
UniProt P22692: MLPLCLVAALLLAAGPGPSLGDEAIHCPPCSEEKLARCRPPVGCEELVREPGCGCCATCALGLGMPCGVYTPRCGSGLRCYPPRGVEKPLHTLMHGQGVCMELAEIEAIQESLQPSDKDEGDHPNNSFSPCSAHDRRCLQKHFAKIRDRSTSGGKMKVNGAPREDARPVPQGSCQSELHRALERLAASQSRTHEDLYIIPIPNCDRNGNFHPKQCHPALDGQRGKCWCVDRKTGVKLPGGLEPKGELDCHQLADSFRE
UniProt O14879: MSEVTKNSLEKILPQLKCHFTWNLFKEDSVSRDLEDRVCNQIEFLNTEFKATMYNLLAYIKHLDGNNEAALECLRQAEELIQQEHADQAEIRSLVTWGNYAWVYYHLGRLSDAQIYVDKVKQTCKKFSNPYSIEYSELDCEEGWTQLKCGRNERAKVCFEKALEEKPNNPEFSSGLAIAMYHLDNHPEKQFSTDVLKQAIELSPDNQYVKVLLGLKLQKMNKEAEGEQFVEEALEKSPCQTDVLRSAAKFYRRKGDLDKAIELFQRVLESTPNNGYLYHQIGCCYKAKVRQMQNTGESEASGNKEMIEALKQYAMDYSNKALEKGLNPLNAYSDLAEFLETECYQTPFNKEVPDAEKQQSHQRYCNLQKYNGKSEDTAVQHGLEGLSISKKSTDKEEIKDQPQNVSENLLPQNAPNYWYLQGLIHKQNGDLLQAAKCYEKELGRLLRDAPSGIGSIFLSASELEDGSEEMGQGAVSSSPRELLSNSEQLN
UniProt Q9NWB7: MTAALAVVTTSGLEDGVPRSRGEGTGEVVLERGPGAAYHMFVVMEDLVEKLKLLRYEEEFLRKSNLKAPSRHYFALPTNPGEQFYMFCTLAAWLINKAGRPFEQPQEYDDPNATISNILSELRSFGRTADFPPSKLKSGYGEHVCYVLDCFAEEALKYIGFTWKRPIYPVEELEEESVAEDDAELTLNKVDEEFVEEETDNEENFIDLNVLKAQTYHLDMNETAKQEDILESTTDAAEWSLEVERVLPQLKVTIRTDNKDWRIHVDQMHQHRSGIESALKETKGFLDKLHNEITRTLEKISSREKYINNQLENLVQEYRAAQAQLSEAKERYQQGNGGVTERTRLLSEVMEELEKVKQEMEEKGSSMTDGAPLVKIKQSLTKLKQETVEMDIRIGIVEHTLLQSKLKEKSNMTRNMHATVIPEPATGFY
UniProt O60725, whole entry, looked up: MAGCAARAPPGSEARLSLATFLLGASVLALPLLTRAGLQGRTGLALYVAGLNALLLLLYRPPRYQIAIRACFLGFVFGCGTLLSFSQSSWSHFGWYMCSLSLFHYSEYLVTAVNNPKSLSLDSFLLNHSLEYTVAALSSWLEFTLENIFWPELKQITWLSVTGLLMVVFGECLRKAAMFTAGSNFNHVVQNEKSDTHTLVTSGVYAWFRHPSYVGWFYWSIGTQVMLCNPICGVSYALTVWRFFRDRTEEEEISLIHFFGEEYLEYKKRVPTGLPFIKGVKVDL
IGKV3D-7, A0A0C4DH55, UniProt A0A0C4DH55, whole entry, looked up: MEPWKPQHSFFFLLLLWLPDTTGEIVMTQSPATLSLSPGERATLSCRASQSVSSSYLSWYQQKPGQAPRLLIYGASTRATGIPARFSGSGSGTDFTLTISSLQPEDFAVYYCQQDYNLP
UniProt Q96EW2: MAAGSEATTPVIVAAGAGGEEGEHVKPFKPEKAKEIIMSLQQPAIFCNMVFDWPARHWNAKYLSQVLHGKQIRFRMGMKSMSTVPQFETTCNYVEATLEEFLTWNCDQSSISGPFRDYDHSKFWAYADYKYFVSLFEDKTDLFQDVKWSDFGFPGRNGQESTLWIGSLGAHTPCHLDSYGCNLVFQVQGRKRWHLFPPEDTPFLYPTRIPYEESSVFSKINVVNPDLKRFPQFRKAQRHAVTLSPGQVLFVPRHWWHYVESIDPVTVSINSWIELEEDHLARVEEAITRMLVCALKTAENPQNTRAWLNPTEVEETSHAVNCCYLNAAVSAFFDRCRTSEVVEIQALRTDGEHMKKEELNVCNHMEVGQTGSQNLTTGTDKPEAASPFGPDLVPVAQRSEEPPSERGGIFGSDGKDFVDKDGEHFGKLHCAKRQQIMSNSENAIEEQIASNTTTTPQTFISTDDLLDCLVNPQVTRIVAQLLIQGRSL
UniProt Q9H7X7: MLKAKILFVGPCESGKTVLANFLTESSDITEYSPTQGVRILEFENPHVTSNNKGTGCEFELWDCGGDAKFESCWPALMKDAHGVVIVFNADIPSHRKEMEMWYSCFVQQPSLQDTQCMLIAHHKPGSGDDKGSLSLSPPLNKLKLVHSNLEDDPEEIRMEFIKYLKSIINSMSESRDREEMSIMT
UniProt Q8NBZ0, whole entry, looked up: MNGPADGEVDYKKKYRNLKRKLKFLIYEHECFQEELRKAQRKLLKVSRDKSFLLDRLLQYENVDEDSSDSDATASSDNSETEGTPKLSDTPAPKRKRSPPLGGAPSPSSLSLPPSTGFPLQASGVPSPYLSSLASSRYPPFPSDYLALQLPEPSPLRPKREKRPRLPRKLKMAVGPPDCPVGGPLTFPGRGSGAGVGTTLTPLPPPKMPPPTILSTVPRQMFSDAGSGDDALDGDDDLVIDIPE
UniProt Q96LU5: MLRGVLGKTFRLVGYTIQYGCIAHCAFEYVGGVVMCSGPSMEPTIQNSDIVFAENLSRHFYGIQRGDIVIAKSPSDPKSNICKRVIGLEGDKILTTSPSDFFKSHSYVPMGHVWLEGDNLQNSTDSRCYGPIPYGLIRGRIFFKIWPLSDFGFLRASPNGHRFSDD
UniProt Q9HBG6: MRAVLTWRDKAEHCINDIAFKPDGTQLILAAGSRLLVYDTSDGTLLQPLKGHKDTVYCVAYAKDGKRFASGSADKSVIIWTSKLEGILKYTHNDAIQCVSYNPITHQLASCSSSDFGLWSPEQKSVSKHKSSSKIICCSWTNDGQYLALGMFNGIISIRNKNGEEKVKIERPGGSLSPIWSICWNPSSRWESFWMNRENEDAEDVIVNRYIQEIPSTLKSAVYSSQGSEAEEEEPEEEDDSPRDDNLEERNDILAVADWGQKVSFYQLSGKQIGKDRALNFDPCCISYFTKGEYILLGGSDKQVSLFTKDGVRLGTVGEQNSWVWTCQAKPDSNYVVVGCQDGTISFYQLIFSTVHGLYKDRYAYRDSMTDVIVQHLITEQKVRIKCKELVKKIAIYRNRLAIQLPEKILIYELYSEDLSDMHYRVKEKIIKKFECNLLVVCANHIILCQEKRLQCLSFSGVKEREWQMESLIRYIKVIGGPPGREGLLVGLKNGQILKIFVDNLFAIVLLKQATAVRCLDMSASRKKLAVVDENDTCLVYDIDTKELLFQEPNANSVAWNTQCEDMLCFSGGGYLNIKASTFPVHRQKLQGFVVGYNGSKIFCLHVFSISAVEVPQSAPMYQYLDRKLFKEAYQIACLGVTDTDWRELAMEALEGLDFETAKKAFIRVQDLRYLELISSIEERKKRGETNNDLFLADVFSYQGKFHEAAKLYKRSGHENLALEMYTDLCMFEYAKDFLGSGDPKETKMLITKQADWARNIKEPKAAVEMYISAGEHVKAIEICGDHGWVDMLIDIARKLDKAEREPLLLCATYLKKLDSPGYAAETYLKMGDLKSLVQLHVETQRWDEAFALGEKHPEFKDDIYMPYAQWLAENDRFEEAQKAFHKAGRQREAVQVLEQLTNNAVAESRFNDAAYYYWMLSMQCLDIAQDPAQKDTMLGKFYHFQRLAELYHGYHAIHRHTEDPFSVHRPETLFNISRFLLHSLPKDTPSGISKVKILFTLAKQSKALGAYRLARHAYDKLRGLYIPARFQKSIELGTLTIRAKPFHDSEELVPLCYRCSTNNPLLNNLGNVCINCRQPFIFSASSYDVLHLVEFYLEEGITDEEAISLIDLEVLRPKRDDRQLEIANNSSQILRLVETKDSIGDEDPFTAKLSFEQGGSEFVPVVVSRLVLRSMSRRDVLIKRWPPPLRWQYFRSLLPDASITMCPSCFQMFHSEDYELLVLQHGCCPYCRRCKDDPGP
UniProt Q6UWB1, whole entry, looked up: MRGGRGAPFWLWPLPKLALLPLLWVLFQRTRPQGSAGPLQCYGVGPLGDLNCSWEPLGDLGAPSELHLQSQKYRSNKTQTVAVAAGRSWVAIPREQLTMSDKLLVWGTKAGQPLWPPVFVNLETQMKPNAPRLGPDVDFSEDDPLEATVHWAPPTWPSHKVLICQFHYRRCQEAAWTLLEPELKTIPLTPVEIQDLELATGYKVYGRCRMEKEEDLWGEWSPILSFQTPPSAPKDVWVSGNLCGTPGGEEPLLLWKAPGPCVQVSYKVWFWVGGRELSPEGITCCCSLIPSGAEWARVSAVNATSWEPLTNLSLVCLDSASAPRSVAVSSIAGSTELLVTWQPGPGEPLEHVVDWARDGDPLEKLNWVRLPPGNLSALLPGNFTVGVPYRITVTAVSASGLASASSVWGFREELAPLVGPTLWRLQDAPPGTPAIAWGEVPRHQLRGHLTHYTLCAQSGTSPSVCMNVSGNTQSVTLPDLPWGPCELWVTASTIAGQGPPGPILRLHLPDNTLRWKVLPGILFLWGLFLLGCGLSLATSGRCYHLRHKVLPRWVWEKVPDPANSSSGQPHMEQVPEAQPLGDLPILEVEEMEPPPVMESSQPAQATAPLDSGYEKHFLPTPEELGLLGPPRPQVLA
UniProt Q96D96: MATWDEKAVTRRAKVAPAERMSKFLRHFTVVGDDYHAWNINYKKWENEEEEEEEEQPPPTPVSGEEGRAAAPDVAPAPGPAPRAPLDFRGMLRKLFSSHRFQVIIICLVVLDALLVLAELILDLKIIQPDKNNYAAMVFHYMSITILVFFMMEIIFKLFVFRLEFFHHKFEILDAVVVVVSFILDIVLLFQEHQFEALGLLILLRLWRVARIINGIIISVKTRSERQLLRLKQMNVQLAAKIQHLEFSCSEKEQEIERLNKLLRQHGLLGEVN
UniProt P22304: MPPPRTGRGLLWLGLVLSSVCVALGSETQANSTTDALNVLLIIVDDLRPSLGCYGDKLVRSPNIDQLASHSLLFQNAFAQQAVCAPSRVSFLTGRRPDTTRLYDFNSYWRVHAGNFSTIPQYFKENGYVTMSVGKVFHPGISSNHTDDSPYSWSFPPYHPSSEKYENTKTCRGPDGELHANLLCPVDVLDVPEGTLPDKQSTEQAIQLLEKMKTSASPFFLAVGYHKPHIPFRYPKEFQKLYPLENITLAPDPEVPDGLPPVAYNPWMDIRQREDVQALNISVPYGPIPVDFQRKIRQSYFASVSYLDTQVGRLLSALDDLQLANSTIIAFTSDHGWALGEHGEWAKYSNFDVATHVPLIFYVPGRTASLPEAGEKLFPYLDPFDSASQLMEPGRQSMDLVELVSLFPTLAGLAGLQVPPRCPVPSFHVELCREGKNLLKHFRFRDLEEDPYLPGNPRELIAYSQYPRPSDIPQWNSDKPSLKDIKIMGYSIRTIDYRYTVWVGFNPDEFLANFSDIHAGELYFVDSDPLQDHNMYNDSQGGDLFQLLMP
UniProt P50213: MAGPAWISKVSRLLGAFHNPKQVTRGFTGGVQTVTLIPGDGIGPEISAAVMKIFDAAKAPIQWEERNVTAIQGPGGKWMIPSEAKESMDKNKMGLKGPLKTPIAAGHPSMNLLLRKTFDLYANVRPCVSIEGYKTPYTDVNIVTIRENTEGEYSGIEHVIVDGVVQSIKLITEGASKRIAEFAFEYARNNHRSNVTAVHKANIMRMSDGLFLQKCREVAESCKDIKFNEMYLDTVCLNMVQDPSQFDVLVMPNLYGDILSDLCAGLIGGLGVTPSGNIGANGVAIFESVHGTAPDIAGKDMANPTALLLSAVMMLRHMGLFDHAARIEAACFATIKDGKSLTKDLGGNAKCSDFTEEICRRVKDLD

Compound in the first assay: CC1=C(C=C(C=C1)NC(=O)C2=CC(=CC=C2)N(C)C)NC(=O)C3=CC=C(C=C3)O
The assay is described as follows: log2 fold change, soluble protein after heating vs DMSO (PISA); higher = thermal stabilisation; K562 lysate, 10 uM; active = over 0.2 and 3.5 SD of the protein, either way, in both replicates (recomputed). In short, it runs like this: (§1)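 Pellets of K562 cells were dounce-homogenised in PBS pH 7.4 with 1 mM MgCl2, and the crude extract was held at 1 mg/mL protein for a 30 min treatment with 10 μM compound. Aliquots were heated for 3 min over 48°C-58°C and pooled before NP-40 was added to 0.5% at 4°C. The supernatant from 21,000xg for 90 min was quantified by TMTpro 16plex LC-MS/MS with channel sums equalised. Values are reported from duplicates as log-two fold change in thermal stability relative to solvent controls.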
As to ING1 (UniProt Q9UK53), the log2 fold change is inactive: -0.007. Regarding HYDIN (UniProt Q4G0P3), the log2 fold change was inactive: -0.107. Consider ING5 (UniProt Q8WYH8), for which the log2 fold change is inactive: 0.072.

In the case of HSPA8 (UniProt E9PN89), the log2 fold change was inactive: 0.231.

In the case of IGFBP4 (UniProt P22692), the log2 fold change was inactive: 0.037. Consider IGHV3-72, A0A4W8ZXM2, for which the log2 fold change is inactive: -0.266. Take IFIT3 (UniProt O14879): the log2 fold change is inactive: -0.143. On to IMPDH2 (UniProt H0Y4R1), for which the log2 fold change was inactive: 0.062.

Consider IFT57 (UniProt Q9NWB7), for which the log2 fold change is inactive: -0.42. Consider ICMT (UniProt O60725), for which the log2 fold change was inactive: -0.009. Take HYKK (UniProt A2RU49): the log2 fold change was inactive: -0.226.

IGKV3D-7, A0A0C4DH55: the log2 fold change is inactive: -0.006. In the case of HSPBAP1 (UniProt Q96EW2), the log2 fold change is inactive: 0.084. With IGKC (UniProt P01834), the log2 fold change was inactive: -0.04. On the same count and under the same terms, under IFT22 (UniProt Q9H7X7) stands inactive: -0.299; under INO80E (UniProt Q8NBZ0), inactive: -0.014. Regarding IMMP1L (UniProt Q96LU5), the log2 fold change was inactive: 0.027. Take IFT122 isoform 5 (UniProt Q9HBG6): the log2 fold change is inactive: -0.018. Consider HTD2 (UniProt P86397), for which the log2 fold change was inactive: -0.035. Consider IL27RA (UniProt Q6UWB1), for which the log2 fold change was inactive: -0.131.

Compound in a further assay: CC1=CC=C(C=C1)SC2=C3C=C(SC3=CN=C2)C(=O)N
The description is as above. The gist of the method: as §1
IGHMBP2 (UniProt P38935): the log2 fold change was inactive: 0.06. Take HYDIN (UniProt Q4G0P3): the log2 fold change was inactive: 0.017. For the target ING5 (UniProt Q8WYH8), the log2 fold change was inactive: -0.059. Take HSPA8 (UniProt E9PN89): the log2 fold change is inactive: -0.083. Still for that read-out and setting: under HVCN1 (UniProt Q96D96) stands inactive: -0.131.

With IGFBP4 (UniProt P22692), the log2 fold change was inactive: -0.139. For IMPDH2 (UniProt H0Y4R1), the log2 fold change is inactive: 0.032. As to IFT57 (UniProt Q9NWB7), the log2 fold change was inactive: 0.147. Consider HYKK (UniProt A2RU49), for which the log2 fold change was inactive: -0.057. As to HYOU1, A0A494C039, the log2 fold change was inactive: 0.123. Regarding IDS (UniProt P22304), the log2 fold change is inactive: 0.098. With IDH3A isoform 2 (UniProt P50213), the log2 fold change was inactive: 0.026. HSPBAP1 (UniProt Q96EW2): the log2 fold change was inactive: 0.084. Take IGKC (UniProt P01834): the log2 fold change was inactive: -0.045. Consider INO80E (UniProt Q8NBZ0), for which the log2 fold change was inactive: 0.134. Still for that read-out and setting: under IMMP1L (UniProt Q96LU5) stands inactive: -0.069; under HTD2 (UniProt P86397), inactive: -0.046. IL27RA (UniProt Q6UWB1): the log2 fold change is inactive: 0.054.

Values taken from the supplement of paper PMC10849652.
